# Results: patent publication US6524826B1, “Polynucleotides encoding cortistatin polypeptides” (Human Genome Sciences, Inc., priority 1996, dated 2003)
# At least one compound was matched to its structure with a doubt left.
# Test system: visual cortex
# Assay: local Electroencephalographic Activity (EEG) in the visual cortex
# Type: in vivo
# Details: microiontophoretic application, Cortistatin with ACh or alone
compound,measurement,value
"CC(=O)OCC[N+](C)(C)C [ACh, acetyl choline, reference compound]",averaged EEG power spectra in the 8-16 Hz frequency range,markedly increase
